From PMC11323550 come the findings set out here.

Protein sequences, listed by entry. Tags and fused reporters are not part of them. Lines headed by an entry give the natural chain unless they say otherwise; changes in a name come on top.
UniProt P0A068: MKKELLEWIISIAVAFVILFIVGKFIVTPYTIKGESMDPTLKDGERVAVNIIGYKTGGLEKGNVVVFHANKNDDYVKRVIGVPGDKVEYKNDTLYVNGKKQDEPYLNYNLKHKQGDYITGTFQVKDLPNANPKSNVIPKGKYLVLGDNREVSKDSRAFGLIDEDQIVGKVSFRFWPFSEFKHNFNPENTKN

These are yes or no findings as the source states them, for the method shown. Binding calls can cover weak binding; strength is not graded here. Where a sequence is shown, tags or fusion partners need not be part of it.

Assay [1] concerns the target T1, MspA amino acids 2-84 with T18 tag fused at the C-terminus (S. aureus) (UniProt Q2FVZ6).
T1 sequence: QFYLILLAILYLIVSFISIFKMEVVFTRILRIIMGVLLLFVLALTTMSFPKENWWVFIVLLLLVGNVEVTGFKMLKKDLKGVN
Description: two-hybrid; bacterial two-hybrid (BACTH), T25 and T18 fusions co-transformed in E. coli BTH101; dotted on LB with X-gal and 1-mM IPTG, 30°C for 24 h; three replicates.

For assay [2], the target named is T2, MspA amino acids 25-105 with T25 tag fused at the N-terminus (S. aureus) (UniProt Q2FVZ6).
T2 sequence: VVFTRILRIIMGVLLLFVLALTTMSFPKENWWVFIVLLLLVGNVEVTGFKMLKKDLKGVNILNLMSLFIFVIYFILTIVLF
The assay is described as above.

As for “Extracellular SpsB domain (amino acids 38-191), BACTH fusion (from UniProt P0A068) (domain or fragment)”, the binding result in assay [1] and in assay [2] was “no binding” throughout.
On to “Full SpsB sequence with T25 fused to N-terminus (from UniProt P0A068) (enzyme)”, for which the binding result in assay [1] was “binds”.
As to “Full SpsB sequence with T18 fused to N-terminus (from UniProt P0A068) (enzyme)”, the binding entry in assay [2] is listed as “binds”.
As for “Flotillin (FloA), BACTH fusion (S. aureus)”, the binding result in assay [1] and in assay [2] was “no binding” in each case.
